PubChem BioAssay AID1159594 | NIAID, 2016

Test: 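Genes required for a TNF reporter response to diacyl lipopeptide stimulation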
Cell system: human THP-1 B5 reporter cells, PMA-differentiated into macrophage-like cells
Reagent: single siRNA against human genes
Duration: 48 to 72 hours after siRNA transfection; ligand exposure 4 hours
Treatment: Pam2CSK4 (TLR2/6 agonist) stimulation for 4 hours before lysis; dose not given
Read-out: 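Robust z-score, relative to negative controls, of the firefly/renilla ratio from a TNF promoter reporter, after per-plate median/MAD scaling, mean of replicate screens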
Reading the numbers: TNF reporter z-score: higher = stronger TNF promoter reporter activity
Call rule: 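Active when the mean z-score across replicates is at or beyond ±1.5 in either direction, matching a depositor grade of 50 or higher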
Meaning of the calls: active = z-score beyond ±1.5 (either direction); inactive = z-score within ±1.5
Shown is one part, drawn at random, of 756 reagents tested. 130 of them (17%) count as active. 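Active calls cover both falls and rises of reporter activity; each row reflects one siRNA, not a gene-level verdict.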 The numbers tell different reagents against one gene apart. Not given: the amount of reagent.

gene knocked down	reagent no.	TNF reporter z-score, replicate mean	Call
IFNB1 (interferon beta 1)	1	-0.95	inactive
IFNB1 (interferon beta 1)	2	-0.0518	inactive
IFNB1 (interferon beta 1)	3	-0.138	inactive
IFNB1 (interferon beta 1)	4	0.104	inactive
IFNB1 (interferon beta 1)	5	-1.71	active
IFNB1 (interferon beta 1)	6	-1.77	active
IFNAR1 (interferon alpha and beta receptor subunit 1)	1	-1.26	inactive
IFNAR1 (interferon alpha and beta receptor subunit 1)	2	-0.884	inactive
IFNAR1 (interferon alpha and beta receptor subunit 1)	3	0.148	inactive
IFNAR1 (interferon alpha and beta receptor subunit 1)	4	0.177	inactive
IFNAR1 (interferon alpha and beta receptor subunit 1)	5	-1.24	inactive
IFNAR1 (interferon alpha and beta receptor subunit 1)	6	0.181	inactive
TANK (TRAF family member associated NFKB activator)	1	0.957	inactive
TANK (TRAF family member associated NFKB activator)	2	-0.695	inactive
TANK (TRAF family member associated NFKB activator)	3	0.0493	inactive
TANK (TRAF family member associated NFKB activator)	4	1.15	inactive
TANK (TRAF family member associated NFKB activator)	5	-0.827	inactive
TANK (TRAF family member associated NFKB activator)	6	-1.27	inactive
MAP2K7 (mitogen-activated protein kinase kinase 7)	1	-1	inactive
MAP2K7 (mitogen-activated protein kinase kinase 7)	2	-0.444	inactive
MAP2K7 (mitogen-activated protein kinase kinase 7)	3	-0.226	inactive
MAP2K7 (mitogen-activated protein kinase kinase 7)	4	-0.183	inactive
MAP2K7 (mitogen-activated protein kinase kinase 7)	5	-2.25	active
MAP2K7 (mitogen-activated protein kinase kinase 7)	6	-1.16	inactive
TLR8 (toll like receptor 8)	1	-0.162	inactive
TLR8 (toll like receptor 8)	2	0.456	inactive
TLR8 (toll like receptor 8)	3	-0.136	inactive
TLR8 (toll like receptor 8)	4	-1.29	inactive
TLR8 (toll like receptor 8)	5	-0.102	inactive
TLR8 (toll like receptor 8)	6	-0.295	inactive
RIPK1 (receptor interacting serine/threonine kinase 1)	1	-0.225	inactive
RIPK1 (receptor interacting serine/threonine kinase 1)	2	-0.423	inactive
RIPK1 (receptor interacting serine/threonine kinase 1)	3	-0.555	inactive
RIPK1 (receptor interacting serine/threonine kinase 1)	4	-0.452	inactive
RIPK1 (receptor interacting serine/threonine kinase 1)	5	-0.297	inactive
RIPK1 (receptor interacting serine/threonine kinase 1)	6	-0.0322	inactive
TAB1 (TGF-beta activated kinase 1 (MAP3K7) binding protein 1)	1	-0.379	inactive
TAB1 (TGF-beta activated kinase 1 (MAP3K7) binding protein 1)	2	-0.692	inactive
TAB1 (TGF-beta activated kinase 1 (MAP3K7) binding protein 1)	3	-0.609	inactive
TAB1 (TGF-beta activated kinase 1 (MAP3K7) binding protein 1)	4	-1.85	active
TAB1 (TGF-beta activated kinase 1 (MAP3K7) binding protein 1)	5	-1.2	inactive
TAB1 (TGF-beta activated kinase 1 (MAP3K7) binding protein 1)	6	-2.24	active
TLR4 (toll like receptor 4)	1	-0.634	inactive
TLR4 (toll like receptor 4)	2	-0.339	inactive
TLR4 (toll like receptor 4)	3	0.44	inactive
TLR4 (toll like receptor 4)	4	0.231	inactive
TLR4 (toll like receptor 4)	5	-1.16	inactive
TLR4 (toll like receptor 4)	6	-0.488	inactive
PIK3CD	1	-1.25	inactive
PIK3CD	2	-0.438	inactive
PIK3CD	3	0.806	inactive
PIK3CD	4	0.32	inactive
PIK3CD	5	0.78	inactive
PIK3CD	6	0.839	inactive
ITGAM (integrin subunit alpha M)	1	0.898	inactive
ITGAM (integrin subunit alpha M)	2	-1.64	active
ITGAM (integrin subunit alpha M)	3	-0.46	inactive
ITGAM (integrin subunit alpha M)	4	-0.782	inactive
ITGAM (integrin subunit alpha M)	5	-0.526	inactive
ITGAM (integrin subunit alpha M)	6	1.71	active
ATF7 (activating transcription factor 7)	1	-0.954	inactive
ATF7 (activating transcription factor 7)	2	0.0279	inactive
ATF7 (activating transcription factor 7)	3	-0.445	inactive
ATF7 (activating transcription factor 7)	4	0.13	inactive
ATF7 (activating transcription factor 7)	5	-2.58	active
ATF7 (activating transcription factor 7)	6	-1.28	inactive
TLR3 (toll like receptor 3)	1	-0.0442	inactive
TLR3 (toll like receptor 3)	2	-0.4	inactive
TLR3 (toll like receptor 3)	3	-0.371	inactive
TLR3 (toll like receptor 3)	4	-1.14	inactive
TLR3 (toll like receptor 3)	5	-0.497	inactive
TLR3 (toll like receptor 3)	6	-0.51	inactive
TRADD (TNFRSF1A associated via death domain)	1	-1.47	inactive
TRADD (TNFRSF1A associated via death domain)	2	-1.39	inactive
TRADD (TNFRSF1A associated via death domain)	3	0.122	inactive
TRADD (TNFRSF1A associated via death domain)	4	-2.15	active
TRADD (TNFRSF1A associated via death domain)	5	0.339	inactive
TRADD (TNFRSF1A associated via death domain)	6	-3.61	active
ELF4 (E74 like ETS transcription factor 4)	1	-1.9	active
ELF4 (E74 like ETS transcription factor 4)	2	-1.61	active
ELF4 (E74 like ETS transcription factor 4)	3	-0.496	inactive
ELF4 (E74 like ETS transcription factor 4)	4	-1.47	inactive
ELF4 (E74 like ETS transcription factor 4)	5	-1.36	inactive
ELF4 (E74 like ETS transcription factor 4)	6	-0.444	inactive
DUSP1 (dual specificity phosphatase 1)	1	-0.248	inactive
DUSP1 (dual specificity phosphatase 1)	2	1.12	inactive
DUSP1 (dual specificity phosphatase 1)	3	-0.599	inactive
DUSP1 (dual specificity phosphatase 1)	4	1.6	active
DUSP1 (dual specificity phosphatase 1)	5	-0.592	inactive
DUSP1 (dual specificity phosphatase 1)	6	0.348	inactive
LY96 (lymphocyte antigen 96)	1	-0.174	inactive
LY96 (lymphocyte antigen 96)	2	-0.0858	inactive
LY96 (lymphocyte antigen 96)	3	0.451	inactive
LY96 (lymphocyte antigen 96)	4	-1.39	inactive
LY96 (lymphocyte antigen 96)	5	-0.491	inactive
LY96 (lymphocyte antigen 96)	6	-0.248	inactive
CCL3 (C-C motif chemokine ligand 3)	1	-1.8	active
CCL3 (C-C motif chemokine ligand 3)	2	-0.193	inactive
CCL3 (C-C motif chemokine ligand 3)	3	-0.18	inactive
CCL3 (C-C motif chemokine ligand 3)	4	0.0456	inactive
CCL3 (C-C motif chemokine ligand 3)	5	-0.357	inactive
CCL3 (C-C motif chemokine ligand 3)	6	0.197	inactive
AKT2 (AKT serine/threonine kinase 2)	1	-0.466	inactive
AKT2 (AKT serine/threonine kinase 2)	2	0.416	inactive
AKT2 (AKT serine/threonine kinase 2)	3	-0.957	inactive
AKT2 (AKT serine/threonine kinase 2)	4	0.197	inactive
AKT2 (AKT serine/threonine kinase 2)	5	0.832	inactive
AKT2 (AKT serine/threonine kinase 2)	6	0.379	inactive
MAP3K14 (mitogen-activated protein kinase kinase kinase 14)	1	1.29	inactive
MAP3K14 (mitogen-activated protein kinase kinase kinase 14)	2	-0.0875	inactive
MAP3K14 (mitogen-activated protein kinase kinase kinase 14)	3	0.693	inactive
MAP3K14 (mitogen-activated protein kinase kinase kinase 14)	4	-0.204	inactive
MAP3K14 (mitogen-activated protein kinase kinase kinase 14)	5	-0.137	inactive
MAP3K14 (mitogen-activated protein kinase kinase kinase 14)	6	-1.47	inactive
SIGIRR (single Ig and TIR domain containing)	1	-0.257	inactive
SIGIRR (single Ig and TIR domain containing)	2	0.638	inactive
SIGIRR (single Ig and TIR domain containing)	3	-0.95	inactive
SIGIRR (single Ig and TIR domain containing)	4	-1.35	inactive
SIGIRR (single Ig and TIR domain containing)	5	0.959	inactive
SIGIRR (single Ig and TIR domain containing)	6	-0.795	inactive
MAPK9 (mitogen-activated protein kinase 9)	1	-0.458	inactive
MAPK9 (mitogen-activated protein kinase 9)	2	-0.537	inactive
MAPK9 (mitogen-activated protein kinase 9)	3	-0.349	inactive
MAPK9 (mitogen-activated protein kinase 9)	4	1.57	active
MAPK9 (mitogen-activated protein kinase 9)	5	-0.688	inactive
MAPK9 (mitogen-activated protein kinase 9)	6	-0.483	inactive
CXCL9 (C-X-C motif chemokine ligand 9)	1	-0.0518	inactive
CXCL9 (C-X-C motif chemokine ligand 9)	2	-0.871	inactive
CXCL9 (C-X-C motif chemokine ligand 9)	3	-1.32	inactive
CXCL9 (C-X-C motif chemokine ligand 9)	4	-1.5	inactive
CXCL9 (C-X-C motif chemokine ligand 9)	5	-0.132	inactive
CXCL9 (C-X-C motif chemokine ligand 9)	6	0.115	inactive
IKBKB (inhibitor of nuclear factor kappa B kinase subunit beta)	1	0.361	inactive
IKBKB (inhibitor of nuclear factor kappa B kinase subunit beta)	2	-0.903	inactive
IKBKB (inhibitor of nuclear factor kappa B kinase subunit beta)	3	0.532	inactive
IKBKB (inhibitor of nuclear factor kappa B kinase subunit beta)	4	0.219	inactive
IKBKB (inhibitor of nuclear factor kappa B kinase subunit beta)	5	-0.0622	inactive
IKBKB (inhibitor of nuclear factor kappa B kinase subunit beta)	6	-0.247	inactive
IKBKG	1	-1.97	active
IKBKG	2	-0.625	inactive
IKBKG	3	-0.538	inactive
IKBKG	4	-1.77	active
IKBKG	5	-0.0765	inactive
IKBKG	6	-1.18	inactive

Copied from the entries so far for reference:
gene knocked down	reagent no.	TNF reporter z-score, replicate mean	Call
CCL3 (C-C motif chemokine ligand 3)	6	0.197	inactive
AKT2 (AKT serine/threonine kinase 2)	1	-0.466	inactive
AKT2 (AKT serine/threonine kinase 2)	2	0.416	inactive
AKT2 (AKT serine/threonine kinase 2)	3	-0.957	inactive
AKT2 (AKT serine/threonine kinase 2)	4	0.197	inactive
AKT2 (AKT serine/threonine kinase 2)	5	0.832	inactive
AKT2 (AKT serine/threonine kinase 2)	6	0.379	inactive
MAP3K14 (mitogen-activated protein kinase kinase kinase 14)	1	1.29	inactive
MAP3K14 (mitogen-activated protein kinase kinase kinase 14)	2	-0.0875	inactive
MAP3K14 (mitogen-activated protein kinase kinase kinase 14)	3	0.693	inactive
MAP3K14 (mitogen-activated protein kinase kinase kinase 14)	4	-0.204	inactive
MAP3K14 (mitogen-activated protein kinase kinase kinase 14)	5	-0.137	inactive
MAP3K14 (mitogen-activated protein kinase kinase kinase 14)	6	-1.47	inactive
